The values that follow come from PMC12706091.

In assay [1] the target is T1, Flag-TIA1 (expressed in HEK293T) (UniProt P31483).
T1 sequence: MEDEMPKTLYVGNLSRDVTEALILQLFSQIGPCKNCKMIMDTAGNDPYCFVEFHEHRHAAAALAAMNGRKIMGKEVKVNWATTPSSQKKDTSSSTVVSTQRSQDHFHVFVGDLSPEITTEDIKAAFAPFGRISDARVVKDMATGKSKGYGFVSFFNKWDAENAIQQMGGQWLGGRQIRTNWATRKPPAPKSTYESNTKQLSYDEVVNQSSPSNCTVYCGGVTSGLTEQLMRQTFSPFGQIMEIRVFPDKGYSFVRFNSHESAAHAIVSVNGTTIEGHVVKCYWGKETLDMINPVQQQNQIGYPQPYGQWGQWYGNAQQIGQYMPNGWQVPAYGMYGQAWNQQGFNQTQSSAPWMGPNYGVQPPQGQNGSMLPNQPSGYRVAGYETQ
As to the kind of experiment: co-IP; HEK293T co-transfected, NP40 lysis buffer, anti-Flag M2 or anti-HA beads, 3 h at 4 °C, wash with 300 mM NaCl; with or without overexpressed Myc-ANXA7.

The target in assay [2] is T2, GST-ANXA7 (UniProt Q6IRJ7).
T2 sequence: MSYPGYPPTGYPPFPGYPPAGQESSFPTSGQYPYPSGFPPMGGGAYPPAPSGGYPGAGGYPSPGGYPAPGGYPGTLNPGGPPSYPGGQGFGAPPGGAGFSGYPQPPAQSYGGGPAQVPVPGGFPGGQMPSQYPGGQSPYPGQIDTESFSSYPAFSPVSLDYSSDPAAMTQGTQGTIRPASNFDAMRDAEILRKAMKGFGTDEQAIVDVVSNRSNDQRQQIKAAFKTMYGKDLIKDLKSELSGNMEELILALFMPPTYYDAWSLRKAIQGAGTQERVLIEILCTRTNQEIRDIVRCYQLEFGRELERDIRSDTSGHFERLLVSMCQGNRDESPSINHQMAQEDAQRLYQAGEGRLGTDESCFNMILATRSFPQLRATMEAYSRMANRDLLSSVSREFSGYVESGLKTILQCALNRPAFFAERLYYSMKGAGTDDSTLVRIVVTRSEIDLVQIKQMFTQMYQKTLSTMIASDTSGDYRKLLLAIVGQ
As to the kind of experiment: pull-down; purified GST fusion added to P14 rat cortical lysate in RIPA buffer, 4 °C, captured on glutathione resin, NP40 wash buffer; western blot; only the target purified.

The target in assay [3] is T3, Annexin A7 (ANXA7), endogenous (rat (endogenous in P14 rat brain and in cultured rat hippocampal neurons)) (UniProt Q6IRJ7).
T3 sequence: T2 sequence
The experiment in a line: proximity ligation; endogenous proteins in fixed DIV12 rat hippocampal neurons, NaveniFlex Cell MR Atto647N kit, axonal PLA density; control, ANXA7 knock-down, rescue with A7-res.

The target of assay [4] is T4, HA-tagged TIA1 (expressed in rat cortical neurons) (UniProt P31483).
T4 sequence: T1 sequence
The experiment in a line: co-IP; DIV11 rat cortical neurons electroporated with HA-TIA1, anti-HA magnetic beads, NP40 lysis buffer; control, shANXA7 knock-down or Myc-ANXA7 overexpression.

For assay [5], the target named is recombinant Flag-DIC1B (rFlag-DIC1B). As to the kind of experiment: pull-down; 2 μg Flag-DIC1B on anti-Flag magnetic beads, 2 μg TIA1 added, without Myc-ANXA7; NP40 lysis buffer with 0.5 M L-arginine, 4 °C; western blot; both purified. On the technique in general: Immunoblotting shows a protein as a band on a membrane.
Assay [6] addresses DIC1B-mRFP. As to the kind of experiment: FRET or BRET; FLIM-FRET in living rat hippocampal neurons (DIV9), donor EGFP-TIA1, acceptor DIC1B-mRFP, axons and soma; control, ANXA7 knock-down, knock-down with Myc-ANXA7-res. (BRET reads energy transfer from a luciferase to a nearby fluorophore.)
In assay [7] the target is recombinant Flag-DIC1B (rFlag-DIC1B). As to the kind of experiment: pull-down; 2 μg Flag-DIC1B on anti-Flag magnetic beads, 2 μg each of Myc-ANXA7 and TIA1 added; NP40 lysis buffer with 0.5 M L-arginine, 4 °C; with or without 1 mM CaCl2; western blot; both purified.
Assay [8] deals with cytoplasmic dynein intermediate chain 1B (DIC1B), endogenous (rat (endogenous in P14 rat brain and in cultured rat neurons)). The experiment in a line: proximity ligation; endogenous proteins in fixed DIV12 rat hippocampal neurons, NaveniFlex Cell MR Atto647N kit, axonal PLA density; control, ANXA7 knock-down, rescue with A7-res.

Results are given in words; binding and its absence hold for the method and conditions named. Binding calls can cover weak binding; strength is not graded here. For part of these data: Tags and fused reporters may be left off the sequences shown. For part of these data: In cells and extracts the contact can be indirect.

Regarding HA-DIC1B (expressed in HEK293T), the binding entry in assay [1] is recorded as “binds”. Turning to “T-cell intracellular antigen 1 (TIA1), endogenous”, the binding entry in assay [2] and in assay [3] was “binds” throughout. Regarding “cytoplasmic dynein intermediate chain 1B (DIC1B), endogenous”, the binding entry in assay [4] and in assay [2] was “binds” throughout.

B1: recombinant TIA1 (rTIA1) (protein, UniProt P31483 1-386)
chain: T1 sequence
With B1, in assay [5], the binding entry is reported as “binds weakly”.

B2: EGFP-TIA1 (protein, UniProt P31483 1-386)
chain: T1 sequence
Consider B2, for which, in assay [6], the binding entry is listed as “binds”.

B3: recombinant Myc-ANXA7 (rMyc-ANXA7) (protein, UniProt Q6IRJ7 1-485)
chain: T2 sequence
As for B3, in assay [7], the binding result is “binds”.

B4: Annexin A7 (ANXA7), endogenous (protein, UniProt Q6IRJ7 1-485)
chain: T2 sequence
With B4, the binding result in assay [8] is “binds”.
